Results taken from PubChem BioAssay AID2685 (National Center for Advancing Translational Sciences (NCATS), 2010).
The other results are listed elsewhere or left out. Shown are side measurements of this screen, not its main read-out; they come without a call. Compounds called inactive in the main read-out are mostly missing here. The note in brackets gives the kind of curve behind each potency; many fits are weak.

Assay: qHTS Assay for Lipid Storage Modulators in Drosophila S3 Cells;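 as to cell number change: cells counted by Cell Tracker Red CMTPX staining in the red channel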
Conditions: BODIPY lipid droplet fluorescence, 18-24 h; for cell number change: measured here: cell count max response, cells fed with added oleic acid
How it was run: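 Drosophila S3 cells got compounds at several concentrations plus oleic acid (400 uM solution). Laser-scanning cytometry with 488 nm excitation read lipid droplets at 500-530 nm and cells at 575-640 nm. Percent activity was relative to 20 uM Triacsin C.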

[1] = measured here: lipid fluorescence (Fed channel) AC50, cells fed with added oleic acid
[2] = measured here: cell number channel AC50, cells fed with added oleic acid

| SMILES | cell number change [%] | AC50 [1] | AC50 [2] |
| --- | --- | --- | --- |
| COc1ccc2nc(N/C(N)=N/C(=S)Nc3ccccc3)nc(C)c2c1 | -22.5 | 20.6 µM [falling, partial curve, poor fit] |  |
| CCCCc1c(O)nc(N2CCN(Cc3ccccc3)CC2)[nH]c1=O | 72.9 | 6.51 µM [rising, single point] | 10.3 µM [rising, partial curve] |
| CCNS(=O)(=O)c1ccc(Br)c(OC)c1 |  | 6.51 µM [falling, single point] |  |
| O=C(CCN1C(=O)C2C3C=CC(C3)C2C1=O)N1CCCCC1 (stereo not drawn) | -4.07 | 0.326 µM [falling, full curve] |  |
| NS(=O)(=O)c1cccc(NC(=O)CN2CCCc3ccccc32)c1 | 36.8 | 29.1 µM [rising, single point] |  |
| CN1CCC(N(C)C(=O)Cc2ccccc2[N+](=O)[O-])CC1 | 11.7 |  |  |
| OCCC1CN(Cc2ccc3nsnc3c2)CCN1CCc1ccccc1 (stereo not drawn) | 9.76 | 20.6 µM [rising, single point] |  |
| CCN(CC)C(=O)CSc1nnc(-c2cnccn2)n1-c1ccccc1 | -20.4 | 0.731 µM [falling, partial curve, poor fit] |  |
| N#CCCc1cccc(CCC#N)c1 | 13.3 | 6.51 µM [rising, single point] |  |
| Cc1nnc(NCCN2CCOCC2)[nH]c1=O | -120 | 16.4 µM [falling, partial curve] | 18.4 µM [falling, single point] |
| Nc1c(C(=O)N/N=C/c2ccc(OCc3ccccc3)cc2)cnn1-c1ccccc1 | -42.1 | 1.84 µM [falling, partial curve, poor fit] | 29.1 µM [falling, single point] |
| COC(=O)C1=C(C)N(C)C(=S)NC1c1ccc(Cl)cc1 (stereo not drawn) | 3.67 | 5.8 µM [rising, single point] |  |
| Oc1cccc(Nc2nc(O)c(/C=C3\C=Nc4ccccc43)s2)c1 | -1.08 | 32.6 µM [falling, single point] |  |
| Brc1ccc(Nc2nc3ccccc3n3nnnc23)cc1 | 53.2 | 3.66 µM [rising, single point] | 4.11 µM [rising, partial curve] |
| Cn1nc(C(F)(F)F)c2cc(NC(=O)OCC(C)(C)C)sc21 | -23.3 | 18.4 µM [falling, single point] |  |
| COc1ccc(/C=N/Nc2nonc2N)c(OC)c1 | 32.6 | 0.146 µM [rising, full curve] | 18.4 µM [rising, single point] |
| O=C(CSCc1ccc(Cl)cc1)Nc1ccc(O)cc1C(=O)O | 35.1 |  | 2.31 µM [rising, partial curve, poor fit] |
| CC1CN(C(=O)C2CCCN2S(=O)(=O)c2ccc(Cl)cc2)CC(C)O1 (stereo not drawn) | 9.07 | 3.66 µM [falling, partial curve, poor fit] |  |
| O=C(O)CC1NC(=S)N(c2ccccc2)C1=O (stereo not drawn) | -109 | 0.651 µM [falling, single point] | 9.2 µM [falling, partial curve] |

Ordered by molecular weight (falling): part of the list above.

| SMILES | cell number change [%] | AC50 [1] | AC50 [2] |
| --- | --- | --- | --- |
| NS(=O)(=O)c1cccc(NC(=O)CN2CCCc3ccccc32)c1 | 36.8 | 29.1 µM [rising, single point] |  |
| CCNS(=O)(=O)c1ccc(Br)c(OC)c1 |  | 6.51 µM [falling, single point] |  |
| CN1CCC(N(C)C(=O)Cc2ccccc2[N+](=O)[O-])CC1 | 11.7 |  |  |

Next structures

| SMILES | cell number change [%] | AC50 [1] | AC50 [2] |
| --- | --- | --- | --- |
| C[C@H](NC(=O)c1[nH]cnc1C(=O)Nc1ccon1)c1ccccc1 | 14.6 | 0.116 µM [rising, full curve, poor fit] |  |
| C=CCOc1c(Cl)cc(CNCCCN2CCOCC2)cc1OC | 19.1 | 0.58 µM [rising, single point] |  |
| CC1C(=O)N2CCCc3cc(NC(=O)C(=O)NCc4cccnc4)cc1c32 (stereo not drawn) | 48.5 |  | 6.51 µM [rising, partial curve, poor fit] |
| Cc1ccc(CCNC(=O)C2CCN(C(=O)c3sccc3-n3cccc3)CC2)cc1 | 10.5 | 0.103 µM [falling, full curve, poor fit] |  |
| CC(=O)N1CCN(C(=O)c2ccco2)CC1 | 18.1 |  |  |
| O=C(Nc1ccccc1)NN(C(=O)CCl)c1ccccc1 | 22.2 | 18.4 µM [falling, partial curve, poor fit] |  |
| CCC(C)C(NC(=O)c1ccccc1NC(=O)c1ccccc1)C(=O)N1CCOCC1 (stereo not drawn) | -23.1 |  |  |
| C=CCn1cc(C(=O)NCc2cccnc2)c(=O)c2cc(S(=O)(=O)N(CC)CC)ccc21 | 8.57 | 0.058 µM [rising, full curve] | 0.00461 µM [rising, full curve] |
| OCCN1CCN(CCCN2c3ccccc3Sc3ccc(Cl)cc32)CC1 | -4.38 | 6.51 µM [falling, full curve, poor fit] |  |
| CCOC(=O)/C=C/C(=O)Nc1nccs1 | 26.5 |  |  |
| Cc1ccc(-n2ncc3c(N4CCN(c5ccc(F)cc5)CC4)ncnc32)c(C)c1 |  |  | 0.651 µM [rising, full curve] |
| CCOC(=O)c1c(NC(=O)Cc2cccs2)sc(C(=O)N2CCCCC2)c1C | -34.9 | 0.651 µM [rising, partial curve] | 16.4 µM [falling, partial curve] |
| NS(=O)(=O)c1ccc(CCNC(=O)COC(=O)c2nc(Cl)ccc2Cl)cc1 | 27.2 | 1.84 µM [falling, partial curve, poor fit] |  |
| Cc1ccc(OCC(=O)NNc2c3ccccc3nc3ccccc23)cc1 | -59 | 1.64 µM [falling, full curve] | 25.9 µM [falling, partial curve] |
| CCCCC(=O)Nc1cccc(NC(=S)NC(=O)C(C)C)c1 | -13.6 | 13 µM [falling, partial curve, poor fit] |  |
| CSCCC(NC(=O)c1ccccc1)C(=O)O (stereo not drawn) | -15.6 | 0.184 µM [falling, full curve] |  |
| O=[N+]([O-])c1cccc(-c2c[n+]3c(n2-c2ccccc2)SCC3)c1 | -14.7 | 29.1 µM [falling, partial curve, poor fit] |  |
| COC(=O)C1CCN(C(=O)COC(=O)C2CCN(S(=O)(=O)c3ccc(C)c(C)c3)CC2)CC1 | -10.5 |  |  |
| O=C(NCc1ccco1)c1cc2ccc(O)cc2oc1=O | 38.5 |  | 5.8 µM [rising, partial curve, poor fit] |
